In PubChem BioAssay AID1508600 (Functional Genomics Laboratory (NCATS/FGL), 2020):
Out of some 53,000 sequences screened, about 3,700 (7%) were called active.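 The calls were made as follows: active = gene knockdowns whose robust z-score for IL-1 alpha signal is at least 2 or at most -2, so actives lie on both sides; inactive = the rest.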 The list shows a part of the results.

Assay: Components of the Cytosolic LPS Sensing Pathway: Gene Identification via Genome-wide siRNA Screen;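 also: robust z of the log signal after scaling to non-targeting control siRNA wells of the plate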
Details: RAW264.7 macrophages, IL-1a HTRF, actives lie on both sides, screened at 100 nM (by protocol), cells primed 5 h with Pam3CSK4 first
Procedure, shortened: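 Mouse macrophage line RAW264.7 is transfected with siRNA (100 nM final), grown 48h, primed with TLR ligand Pam3CSK4 5 h and given intracellular LipidA 24 h. IL-1a in supernatant is read by HTRF and viability by luminescence.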

Sequence	z-score
CCAAGUGGAUCCCGCUUGUTT against Rhot2	inactive: -0.917
GGGCUCUGAAUUGAAGAAATT against Ralgps2	inactive: -0.163
GGUGCAGGACCAUUUCCAUTT against Slc10a6	active: 3.25
GCUGAACUUAUCAACCAGATT against Nacc1	inactive: 0.611
GGAGAUUGAGGCACUGAAGTT against Srms	inactive: 1.36
GGAUGAGGACAAACACGUGTT against Ccdc124	inactive: -0.491
GGACACCAAUCACAUUUGATT against Cngb3	active: -2.21
CGAUCUGUGCAACAUCCUGTT against Kcnk18	inactive: -0.598
CCAUAUUUCGCUAUGGUGCTT against C87436	inactive: 0.241
GGACAGUAUAGUGGAGAUCTT against Fgf22	inactive: 1.66
CCACUCCUUACAUGACCAATT against Polr2f	inactive: -1.5
GCUAGGUCAGGGAGUUUUATT against Exosc2	active: 3.33
GGUAUAUUCGUUCAACAAUTT against Samd9l	inactive: -0.842
GGACUGAACUUCUCAAUGUTT against Folr1	inactive: 0.0527
GGUUCUGUAUUUAUCUUAGTT against Olfr448	inactive: 0.117
GGUGAAGAUAAGUAUCUGCTT against Mug2	inactive: -0.0586
GGUGAAGGUUAAAGAUAUUTT against Pcdha1	inactive: -0.0756
GGCUGGGUUCCAAAAUACUTT against Crbn	inactive: 1.01
GGGAUUUCAUAACUGCACUTT against Btrc	inactive: 0.48
CCUCAUCACACAGGACCCATT against Ppp6r2	inactive: -1.59
GUCUUUGGAAAUCUACUCATT against Olfr1189	inactive: -1.21
CCAAUACCAUGACAUUGGGTT against Fabp1	inactive: -0.175

An excerpt of these results, comma-delimited.
Sequence,z-score
GCUAGGUCAGGGAGUUUUATT against Exosc2,active: 3.33
GGUAUAUUCGUUCAACAAUTT against Samd9l,inactive: -0.842
GGACUGAACUUCUCAAUGUTT against Folr1,inactive: 0.0527
GGUUCUGUAUUUAUCUUAGTT against Olfr448,inactive: 0.117
GGUGAAGAUAAGUAUCUGCTT against Mug2,inactive: -0.0586
GGUGAAGGUUAAAGAUAUUTT against Pcdha1,inactive: -0.0756

Carrying on.

Sequence	z-score
GGAUGAGCAAUAAUAGAAUTT against Ott	inactive: 0.577
GGUGAAAAACCAUUUUGUUTT against Zfp764	inactive: -1.53
GGCAACGGAAUUCCUUAAGTT against Dapk1	inactive: -0.0115
CGUACAACCCAGGAGUUCUTT against Phxr1	inactive: -0.274
GCUGGGUAAAUACCAGCAATT against Slc6a14	inactive: 0.862
GCCAAAUCAGGAACAGCACTT against Trim29	inactive: -0.382
GGUCAAGGAGUUCAUUCUGTT against Matn2	inactive: -1.33
CCCUCGGUAGCAAUAUAAATT against Ncoa2	inactive: -0.0112
GGCUCUUGUUGUGAAGAAGTT against Tspan3	inactive: 0.67
GGAGGUAAAGGAAAACUCUTT against Fmo1	inactive: 0.27
GUGCAAAUUACAGAAAUUCTT against Mex3b	inactive: 0.43
CCUAAUCCUUUAGUGUCUATT against Zmym2	inactive: -0.0463
GGCUUUGGAAUCAUUCAUATT against Zfp759	inactive: -0.534
CCCUGUAUAUAUGAUGACATT against Ldhd	inactive: -1.83
GAUGAAUACAUGGAGUCUCTT against C1qtnf3	inactive: 0.265
GGGUUUUCAGGAGUAUGUCTT against Vmn1r230	inactive: -1.48
GGCUCAGAUCAGAACUACGTT against Inpp4a	inactive: -0.129
CGACCUACUUGGGAUGAUGTT against Pea15b	inactive: 0.683
GGAUGAUUGCUGACGUGGATT against Bax	inactive: 0.299
GCUGUACUAUGCUAAAAGGTT against Ghr	inactive: 0.13
GGAAGGACAAUCAGUUCCUTT against Thsd7b	inactive: 0.999
GGGUGAAAACUCAUUUUAUTT against St6gal2	inactive: -0.33

Sequence	z-score
GCCUUCAUCACUUACACGUTT against Sstr5	inactive: 1.35
GCAAACUUAAAGUGUCUCUTT against Ewsr1	inactive: -0.769
GGUCUUCGAAACACAGCUGTT against Exoc3l2	inactive: -0.402
GGACACUUUCCAAUGGUGATT against Npsr1	inactive: 1.25
GGACCAGCAAACUAAGAGATT against 4930449I24Rik	inactive: -0.107
GGAUUUUGGAUGAAAACACTT against Tmem106a	inactive: 0.302
GGACAAGUUUGACUGUUACTT against Als2cl	inactive: 0.158
CCUCCUGACCUUAAUCUUGTT against P2rx1	inactive: 0.507
GCAGAUGUCUCAUUUCCGUTT against Car2	inactive: 0.186
GGCAGAGCCUAUGAUCUAUTT against Gprin1	inactive: -0.582
CGGGCACUAGAACAAGAACTT against Arvcf	inactive: -0.347
GGGCUCGACUCUUAAUUGUTT against Mapkapk5	inactive: 0.282
GGGCAAAGUACUCUACACCTT against Fgd5	inactive: -0.736
GCAUAUCCUCUUUCGAAGGTT against Adra2c	inactive: 1.39
GGUGCUAAGUUUUGUAUCUTT against Prpf38a	inactive: -0.967
GGACAAAAGCAAAGAAAAGTT against R3hdm2	inactive: -0.822
GGAGACUGGAGAGCAAAAUTT against Krt18	inactive: -1.44
GGUUCUGAAAGAGUGUUAGTT against Htatsf1	inactive: -1.58
GGAUAAGAUGGAAAUCCGUTT against Xpo6	inactive: -0.594
GGUCAUAUGGAGAACGAACTT against Snn	inactive: 1.7
GGGAGCAGAAGCGAAAAGATT against Espn	inactive: 0.218
GGAAAUCGAGGACUUAUACTT against Wnk4	active: 3.54

Sequence	z-score
GCCAUAGCAUAGCUCCCAGTT against Fastkd1	inactive: -0.859
GGAAAUACAGAGGGCGAAATT against Espn	inactive: 1.9
GAAAACUCAAACAGCAUAUTT against Vmn1r216	inactive: 0.833
CCCUGUUAUCCGAUUGGAUTT against Serpina7	inactive: 0.182
GGAAGACUGUAACACCAUCTT against Ankrd61	inactive: -1.47
GCCGCCCAGACAGAUAAACTT against Bag3	inactive: 1.18
GGCAUGUGUGAGAAUCAAUTT against Clec2h	inactive: -0.732
GGCAAACCUCAAUGAGUUUTT against Catsperd	inactive: 0.114
GCAACGUGUCUUUUCAAACTT against P2ry10b	inactive: -0.223
AUUUUGGUGGAGGUAACUATT against Hnrnpa3	inactive: -1.67
GGAGUCUUGUCAUCUCCAUTT against Nup35	inactive: -0.79
GCUCGCCAGAAAAUUGACCTT against Pmm1	inactive: -0.979
GGUCACAGCCUACAAUCGATT against Sgca	inactive: -1.4
GGAAAUUGGGACUCACAUCTT against Trappc13	inactive: -0.0912
GGAAUUGAUCCCAUUUUAATT against Ap4b1	inactive: 0.281
CCCGUAUUUGGUGGUCUGCTT against Hyal1	inactive: -0.556
GCUCUUAAGGUCUUUUAAATT against Crkl	inactive: -1.62
GCAUGCAUUCGUGAAGAAUTT against Plch1	inactive: 1.46
GCUACUUUGUCCCUCUUACTT against Olfr33	inactive: -0.0881
GGCUUUAAGAAUGUAUCGCTT against Dpp3	inactive: -0.751
GGAUAUCUCGGGUUGAAUUTT against Aurka	inactive: -1.38
GGAGAAACCUGGAAGAAGATT against Traf3ip3	inactive: -0.345

Sequence	z-score
CCUUUCACAUUCAUGUGUATT against Rgs19	inactive: -0.0448
GCUCGAGAGUACUGUAGGCTT against Kat8	active: -2.41
GGGAGGUGGAAAGCUCUCUTT against Olfr1256	inactive: 0.613
GCAUUUGGAAACGAUCAAGTT against Chst4	inactive: -0.11
AUUGGUUUUCUGGUGUUAATT against Olfr553	inactive: -0.253
GGGAGCUUCUUUUUUCCAATT against Ctf1	inactive: 0.645
GGGUUUGUUGUCAUUCCUCTT against Mfsd14a	inactive: -0.844
GCAUUAUAAAAAGGUUCCGTT against Atp2b1	inactive: 1.81
GGCAAGAGUGCCUCUGAAATT against Ccnb1	inactive: -0.037
GCUGGGACAGAAAGAACAATT against Ndufa4	inactive: 0.968
GCUACUCCUUAGAACACGGTT against Spry1	inactive: 0.839
GCUUUUGUAGUGACCAGCATT against A730045E13Rik	inactive: -0.225
GGCAGUAUGAGAGGUAUUUTT against Entpd7	inactive: 0.345
GCAAAAGGUGCUCAUUUAATT against Phf14	inactive: 0.736
GGAAGAAAGAAUUGAACUUTT against Add3	inactive: 1.02
GCCCACAGUCAUUAAACUATT against Nipal4	inactive: 0.723
CGACUGUUACGUUGUUUGGTT against Srp9	inactive: -1.96
CCUUGGGAAUUACCCAGAGTT against Cage1	inactive: -0.565
ACCCUUCCCUAUUCGUACATT against 1700016K19Rik	inactive: -1.11
